From the supplement of paper PMC11637464
Structures can show the parent of a compound that is named as a salt. The list shows a part of the results. Many values rest on one well or one pass, so single values are uncertain.

Test system: primary mouse Muller glia with Ascl1 overexpression
Experiment: total cells recovered per well; higher = more cells recovered
Procedure: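 Primary P11 mouse Muller glia carrying dox-inducible Ascl1 were treated with Tocriscreen Stem Cell Library compounds at 0.1, 1 or 10 uM together with doxycycline for 5 days, then profiled by sci-Plex hashing and sci-RNA-seq2. Cells were annotated by marker genes and cell-type counts per well were size-factor adjusted. Read-outs are the log2 fold change of Neuronal (NeuPre + bipolar) and ProL cell counts versus the Ascl1-only control wells of the same collection day, plus the raw number of recovered cells per well. There is one well per dose, and wells with fewer than 20 cells were discarded.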

Row | Structure (SMILES) | total cells recovered per well (0.1 µM) | total cells recovered per well (1 µM) | total cells recovered per well (10 µM)
1 | Nc1nc(N)c2nc(-c3cccc(Cl)c3)c(N)nc2n1 [Epiblastin A] (collection day: 2) | 92 | 61 | 92
2 | CN1CCC[C@@H]1CCO[C@](C)(c1ccccc1)c1ccc(Cl)cc1 [Clemastine fumarate] (collection day: 1) | 50 | 41 | 
3 | Nc1ncn([C@H]2C[C@H](O)[C@@H](CO)O2)c(=O)n1 [Decitabine] (collection day: 1) | 68 | 71 | 85
4 | CN(C)c1ccccc1CN1CCCN(Cc2ccccc2N(C)C)C1c1ccncc1 (collection day: 1) | 72 |  | 50
5 | O=C(O)C(Cc1c[nH]c2ccccc12)N1C(=O)c2ccccc2C1=O (centres undefined) (collection day: 2) | 52 | 50 | 70
6 | O=c1n(CCCN2CCN(c3cccc(Cl)c3)CC2)nc2ccccn12 [Trazodone hydrochloride] (collection day: 2) | 176 | 95 | 102
7 | COc1cccc(Oc2cccc3nc(Nc4ccc(C(C)C)cc4)nc(N)c23)c1 (collection day: 2) | 49 | 93 | 
8 | c1ccc2c(-c3cnn4cc(-c5ccc(N6CCNCC6)cc5)cnc34)ccnc2c1 (collection day: 2) | 76 |  | 
9 | CCN(CC)CCCCNc1ncc2cc(-c3cc(OC)cc(OC)c3)c(NC(=O)NC(C)(C)C)nc2n1 (collection day: 1) | 101 | 57 | 
10 | C=CCNc1ncnc2ccc(Br)cc12 (collection day: 2) | 67 | 84 | 86
11 | CN(C)C(=N)NC(=N)N [Metformin hydrochloride] (collection day: 1) | 102 | 129 | 99
12 | OCCNC1CCCc2c1[nH]c1ccc(-c3ccccc3)cc21 (centres undefined) (collection day: 2) | 124 | 97 | 
13 | Oc1nc(-c2ccc(C(F)(F)F)cc2)nc2c1CSCC2 (collection day: 2) | 91 | 93 | 85
14 | COc1ccn2ncc(-c3nc4[nH]nc(NC(=O)c5ccc(F)cc5)c4cc3F)c2c1 (collection day: 2) | 110 | 175 | 110
15 | O=C1NC(=O)c2c1c(-c1ccccc1)cc1[nH]c3ccc(O)cc3c21 (collection day: 1) | 68 |  | 
16 | O=c1[nH]c(=O)n([C@H]2C[C@H](O)[C@@H](CO)O2)cc1Br (collection day: 2) | 107 | 111 | 126

A portion of the results above:
Row | Structure (SMILES) | total cells recovered per well (0.1 µM) | total cells recovered per well (1 µM) | total cells recovered per well (10 µM)
3 | Nc1ncn([C@H]2C[C@H](O)[C@@H](CO)O2)c(=O)n1 [Decitabine] (collection day: 1) | 68 | 71 | 85
4 | CN(C)c1ccccc1CN1CCCN(Cc2ccccc2N(C)C)C1c1ccncc1 (collection day: 1) | 72 |  | 50
